The values below come from patent US20180105568A1.

These are yes or no findings as the source states them, for the method shown. Some entries that bind do so weakly or less than the wild type.

In the test the target is T1, calcitonin receptor of T47D cells (human breast epithelial cell line) (human) (UniProt P30988).
T1 sequence (looked up): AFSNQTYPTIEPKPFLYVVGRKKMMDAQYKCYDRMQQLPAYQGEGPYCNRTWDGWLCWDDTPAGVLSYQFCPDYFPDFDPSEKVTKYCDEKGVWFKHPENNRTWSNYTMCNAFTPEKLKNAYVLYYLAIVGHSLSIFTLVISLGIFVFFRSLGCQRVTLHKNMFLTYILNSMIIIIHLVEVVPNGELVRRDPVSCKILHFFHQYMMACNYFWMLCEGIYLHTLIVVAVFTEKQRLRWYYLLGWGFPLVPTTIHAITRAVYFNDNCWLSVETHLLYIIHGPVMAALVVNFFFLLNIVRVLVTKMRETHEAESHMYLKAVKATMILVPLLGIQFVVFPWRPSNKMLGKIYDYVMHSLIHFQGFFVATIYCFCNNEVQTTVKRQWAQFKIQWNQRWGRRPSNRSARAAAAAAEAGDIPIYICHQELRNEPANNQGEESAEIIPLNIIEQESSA
Put plainly: T47D cell bioassay, read out as % cAMP binding relative to sCT.

For CSNLSTCVLGKLSQELHKLQTYPRTDVGANAP (acetyl group on cysteine-1 (Ac-); C-terminal amide (-NH2)) [UGP302], the binding entry was “binds”.
CSNLSTCVLGKLSQELHKLQTYPRTNTGSGTP [salmon calcitonin]: the binding result is “binds”.
